Laboratory results reported in patent US6559124B1, “Use of prosaposin and peptides obtained therefrom for treatment of neural degeneration” (Myelos Corporation, priority 1993, dated 2003).
Some of these results come from one statement about several compounds together.

Tested on: NS20Y proteins
Assay: Incorporation of 32P into NS20Y proteins
Type: cell-based
Conditions: NS20Y cells; after 10 minutes
Protocol: NS20Y cells were incubated in phosphate-free Hanks' balanced salt solution containing 2.5 μg/ml actinomycin D and 80-100 μCi/ml carrier-free [^32P]-orthophosphate (New England Nuclear) and effector proteins (0.5-1.0 μg/ml) and incubated for 10-15 minutes at room temperature. Cells were solubilized in SDS-PAGE sample buffer, analyzed by SDS-PAGE and autoradiographed.

Molecule	stimulation of phosphorylation (densitometric analysis)
CEFLVKEVTKLIDNNKTEKEIL [8-29]	3-5 fold
Prosaposin: 70 kilodalton glycoprotein, precursor of saposins A, B, C and D; human sequence SEQ ID NO:2 (protein) MYALFLLASLLGAALAGPVLGLKECTRGSAVWCQNVKTASDCGAVKHCLQTVWNKPTVKSLPCDICKDVVTAAGDMLKDNATEEEILVYLEKTCDWLPKPNMSASCKEIVDSYLPVILDIIKGEMSRPGEVCSALNLCESLQKHLAELNHQKQLESNKIPELDMTEVVAPFMANIPLLLYPQDGPRSKPQPKDGDVCQDCIQMVTDIQTAVRTNSTFVQALVEHVKEECDRLGPGMADICKNYISQYSEIAIQMMMHMQPKEICALVGFCDEVKEMPMQTLVPAKVASKNVIPALDLVDPIKKHEVPAKSDVYCEVCEFLVKEVTKLIDNNKTEKEILDAFDKMCSKLPKSLSEECQEVVDTYGSSILSILLEEVSPELVCSMLHLCSGTRLPALTVHVTQPKDGGFCEVCKKLVGTLDRNLEKNSTKQEILAALEKGCSFLPDPYQKQCDQFVAEYEPVLIEILVEVMDPSFVCLKIGACPSAHKPLLGTEKCIWGPSYWCQNTETAAQCNAVEHCKRHVWN	3-5 fold
